Results taken from PubChem BioAssay AID248 (DTP/NCI, 2004).
The list is a part of this screen's results and no random one: it is rich in T/C values a quarter to a half above the control, in often repeated tests (any T/C) and in doses without a T/C. Other doses and runs of a compound stand elsewhere. T/C: endpoint of the treated group in % of that of the vehicle group. Some doses have a count of surviving animals in place of a T/C: the source holds a T/C of zero for them, seemingly a mark for toxic or unscored doses. Some doses without a T/C left all or most animals alive at the check, yet need not have been tolerated: the source hardly ever lists a survival T/C far under the control, and the zero likely stands for such cases as well. Counts of survivors are from the toxicity check (mostly the fifth day) where no day follows; animals may have died later. Schedules are NCI's codes, taken here to give the interval after Q, in days (D) or hours (H), and the number of doses after X. Some entries hold several experiments; the results are listed from low to high. Some schedule codes hold Z or #, which are not explained here. Where survival is the endpoint, the PubChem record calls one and a half times the control and up active, and a quarter to a half above the control has no call in these data; cut-offs in other NCI protocols can differ. Some T/C values carry the count of animals alive at the toxicity check (mostly the fifth day); where none is given, no animal had died by that day.

System: L1210 leukemia ip in BDF1 mice, survival T/C
Assay: NCI In Vivo Anticancer Drug Screen. Data for tumor model L1210 Leukemia (intraperitoneal) in B6D2F1 (BDF1) mice
Details: T/C endpoint: mean survival time, higher T/C = longer survival
[1] = dose: 200.0 mg/kg/injection, schedule: Q01DX001 (ip), vehicle: saline
[2] = dose: 400.0 mg/kg/injection, schedule: Q01DX001 (ip), vehicle: saline
[3] = dose: 400.0 mg/kg/injection, schedule: Q04DX002 (ip), vehicle: saline
[4] = dose: 100.0 mg/kg/injection, schedule: Q01DX009 (ip), vehicle: saline with Tween-80

For `Nc1nc(Nc2ccc(C3=NCCN3)cc2)nc(Nc2ccc(C3=NCCN3)cc2)n1`, the T/C (dose: 7.5 mg/kg/injection, schedule: Q01DX Z (ip), vehicle: methylcellulose (MC)) was 125 % of control, the T/C (dose: 16.5 mg/kg/injection, schedule: Q01DX009 (ip), vehicle: saline) was 128 % of control and the T/C (dose: 25.0 mg/kg/injection, schedule: Q01DX009 (ip), vehicle: saline) was 143 % of control. For the same compound, the T/C (dose: 30.0 mg/kg/injection, schedule: Q01DX Z (ip), vehicle: methylcellulose (MC)) was 128 % of control, the survivor count (dose: 60.0 mg/kg/injection, schedule: Q01DX Z (ip), vehicle: methylcellulose (MC)) was 0 of 6 and the survivor count (dose: 100.0 mg/kg/injection, schedule: Q01DX009 (ip), vehicle: saline) was 0 of 6. For the same compound, the survivor count (dose: 120.0 mg/kg/injection, schedule: Q01DX Z (ip), vehicle: methylcellulose (MC)) was 0 of 6, the survivor count [1] was 2 of 6 and the survivor count [2] was 0 of 6.
In the case of `CCN(C)CCC(C=O)(c1cccc2ccccc12)C(C)C` (stereo unspecified), the survivor count (dose: 200.0 mg/kg/injection, schedule: Q04DX002 (ip), vehicle: saline) is reported as 2 of 3 and the survivor count [3] is reported as 0 of 3.
In the case of `O=C(NCCCN1CC1)C(=O)NNc1ccccc1`, the survivor count (dose: 400.0 mg/kg/injection, schedule: Q04DX003 (ip), vehicle: Klucel (hydroxypropylcellulose) (HPC)) is reported as 3 of 6.
For `COc1cc(C=O)c([N+](=O)[O-])cc1OC`, the survivor count [2] was 0 of 6.
`CN(N)C=O` was tested, and the survivor count (dose: 200.0 mg/kg/injection, schedule: Q04DX003 (ip), vehicle: saline) was 6 of 6 and the survivor count (dose: 400.0 mg/kg/injection, schedule: Q04DX003 (ip), vehicle: saline) was 4 of 6.
With `Brc1cc(Br)c2[nH]c(-c3ccccc3)cc2c1` the survivor count (dose: 50.0 mg/kg/injection, schedule: Q01DX001 (ip), vehicle: carboxymethylcellulose (CMC)) was 4 of 4.
In the case of `c1cnc2c(c1)CCCC2`, the survivor count [4] is reported as 3 of 3.
With `O=C(CCl)OC1CCCCC1` the survivor count (dose: 400.0 mg/kg/injection, schedule: Q01DX009 (ip), vehicle: saline with Tween-80) was 0 of 6.
For `C=C(Br)CNC(=O)Nc1ccccn1`, the survivor count (dose: 400.0 mg/kg/injection, schedule: Q01DX009 (ip), vehicle: Klucel (hydroxypropylcellulose) (HPC)) was 0 of 6.
In the case of `O=N[O-].O=N[O-].[Co].[NH-]CC[N-]CC[N-]CC[NH-]`, the survivor count (dose: 100.0 mg/kg/injection, schedule: Q01DX001 (ip), vehicle: saline) is reported as 0 of 4, the survivor count [1] is reported as 0 of 4 and the survivor count [2] is reported as 0 of 4.
For `COC(=O)[C@H]1[C@H]2C[C@@H]3c4[nH]c5ccccc5c4CCN3C[C@H]2C[C@@H](OC(=O)c2cc(OC)c(OC)c(OC)c2)[C@@H]1OC`, the survivor count (dose: 3.75 mg/kg/injection, schedule: Q01DX009 (ip), vehicle: Klucel (hydroxypropylcellulose) (HPC)) was 5 of 6.
With `Cc1nc(C(N)=O)c2nc3c4ccccc4c4ccccc4c3nn12` the survivor count (dose: 100.0 mg/kg/injection, schedule: Q04DX002 (ip), vehicle: saline with Tween-80) was 3 of 3.
With `COc1cc(/C=C2\C(O)C3CCN2CC3)cc(OC)c1OC` (stereo unspecified) the survivor count [3] was 0 of 3.
In the case of `CCC1SC(=S)N(C(=O)c2ccc([N+](=O)[O-])cc2)C1CC` (stereo unspecified), the survivor count (dose: 100.0 mg/kg/injection, schedule: Q04DX002 (ip), vehicle: Klucel (hydroxypropylcellulose) (HPC)) is reported as 1 of 3.
In the case of `Cc1ccc(S(=O)(=O)F)cc1N`, the T/C (dose: 100.0 mg/kg/injection, schedule: Q01DX009 (ip), vehicle: carboxymethylcellulose (CMC)) is reported as 93, 97, 100, 106 % of control [5 of 6 alive], the survivor count (dose: 200.0 mg/kg/injection, schedule: Q01DX009 (ip), vehicle: carboxymethylcellulose (CMC)) is reported as 0 of 3 and 0 of 6 and the survivor count (dose: 400.0 mg/kg/injection, schedule: Q01DX009 (ip), vehicle: carboxymethylcellulose (CMC)) is reported as 0 of 3 and 0 of 6.
With `CC(=O)Nc1cc2c(cc1[N+](=O)[O-])-c1ccccc1C2O` (stereo unspecified) the survivor count [1] was 6 of 6 and the survivor count [2] was 0 of 6.
With `COC(=O)CCc1ccc(NP(=O)(N2CC2)N2CC2)cc1` the T/C (dose: 100.0 mg/kg/injection, schedule: Q01DX015 (ip), vehicle: carboxymethylcellulose (CMC)) was 136 % of control and the survivor count (dose: 200.0 mg/kg/injection, schedule: Q01DX015 (ip), vehicle: carboxymethylcellulose (CMC)) was 5 of 6.
In the case of `O=C(C[n+]1ccccc1)N/N=C/c1ccccc1O`, the survivor count (dose: 50.0 mg/kg/injection, schedule: Q01DX009 (ip), vehicle: saline with Tween-80) is reported as 3 of 3, the survivor count [4] is reported as 3 of 3 and the survivor count (dose: 200.0 mg/kg/injection, schedule: Q01DX009 (ip), vehicle: saline with Tween-80) is reported as 3 of 3.
